Source: PubChem BioAssay AID540256 (National Center for Advancing Translational Sciences (NCATS), 2011)
Hit rate of the full screen: of about 300,000 compounds, about 3,700 (1.2%) were called active. This list was built around the results that the source calls inconclusive (neither active nor inactive); the mix of calls is not that of the screen. Calls follow the shape of the full dose curve; tested in HEK293 cells. Potencies beside an inconclusive call are fits to weak or partial responses and may not hold up.

Assay: qHTS for Inhibitors of binding or entry into cells for Lassa Virus; also: nearly all actives have a fitted effect of over 50% in size
Conditions: Lassa virus pseudotype entry inhibition, cell reporter; activity change, negative = inhibition: at 37.9 µM (top of the series) unless noted
% is scaled to controls: 0 for no effect and ±100 for the full control effect; potency is read from the fitted curve at half-maximal effect.

Compound	activity change, negative = inhibition	Potency
Cc1c(Cl)cccc1NC(=O)CSc1nc(=O)[nH]c2c1CCCC2	inactive: -2.76% [at 46.1 µM]	
CCCCn1c(O)c(C(CC)=NCc2ccc(F)cc2)c(=O)[nH]c1=O		inconclusive: 16.4 µM [inhibitor, partial curve]
c1ccc(CN(Cc2cccs2)C(c2cccs2)c2nnnn2C2CCCC2)cc1 (stereo not drawn)	inactive: -15.6%	
COc1cc(C2c3[nH]c4ccccc4c3C[C@@H]3C(=O)N(Cc4ccco4)CC(=O)N23)cc(OC)c1OC (stereo partly drawn)		inconclusive: 10 µM [inhibitor, partial curve, poor fit]
COc1cc2nc(N3CCN(c4cc(C)ccc4C)CC3)nc(N)c2cc1OC		inconclusive: 22.4 µM [inhibitor, single point]
COC(=O)c1c(-c2cccc3ccccc23)csc1NC(=O)Cc1ccc(OC)c(OC)c1		active: 11.2 µM
CS(=O)(=O)N(CC(=O)NCCSCc1ccccc1)c1ccccc1Cl		inconclusive: 22.4 µM [inhibitor, partial curve, poor fit]
Cc1[nH][nH]c(=O)c1C(c1ccccc1[N+](=O)[O-])C(C#N)C#N (stereo not drawn)	inactive: 0.61%	
CCCSC1=C(C#N)C(c2cccnc2)C(C(=O)OCC)=C(c2ccccc2)N1 (stereo not drawn)		inconclusive: 11.2 µM [inhibitor, partial curve, poor fit]
COc1ccc(OC)c(S(=O)(=O)Nc2cc3c4c(c2)CCC(=O)N4CCC3)c1		inconclusive: 1.26 µM [inhibitor, partial curve, poor fit]
COc1ccc(/C=N/Nc2ncnc3c2[nH]c2ccccc23)c(OC)c1OC	inactive: 7.73%	
COc1ccc(CCCC(=O)N/N=C/c2cccc(OC)c2O)cc1C		inconclusive: 9.2 µM [inhibitor, partial curve]
CC(C)c1ccc(CN(C(=O)/C=C/c2ccco2)C2CCS(=O)(=O)C2)cc1 (stereo not drawn)		inconclusive: 7.08 µM [inhibitor, partial curve, poor fit]
CCOC(=O)C1CCCN(c2ncnc3c2oc2ccccc23)C1 (stereo not drawn)		inconclusive: 8.91 µM [inhibitor, partial curve]
Cc1ccc(NCC(=O)N/N=C\c2ccc[nH]2)cc1		inconclusive: 5.62 µM [inhibitor, partial curve]
O=C(c1cc([N+](=O)[O-])cc([N+](=O)[O-])c1)N(Cc1nnc(-c2ccccc2Cl)o1)C1CC1	inactive: -27.8%	
O=C(Oc1ccc(N(Cc2cccs2)C2=NS(=O)(=O)c3ccccc32)cc1)c1ccc(Cl)cc1		inconclusive: 23.1 µM [inhibitor, single point]
O=C(N/N=C1/CCS(=O)(=O)c2ccc(F)cc21)c1ccccn1	inactive: 23.6% [at 46.1 µM]	

3 compounds from above, sorted by length of the SMILES, high to low.
Compound	activity change, negative = inhibition	Potency
O=C(Oc1ccc(N(Cc2cccs2)C2=NS(=O)(=O)c3ccccc32)cc1)c1ccc(Cl)cc1		inconclusive: 23.1 µM [inhibitor, single point]
CCCSC1=C(C#N)C(c2cccnc2)C(C(=O)OCC)=C(c2ccccc2)N1 (stereo not drawn)		inconclusive: 11.2 µM [inhibitor, partial curve, poor fit]
COc1cc2nc(N3CCN(c4cc(C)ccc4C)CC3)nc(N)c2cc1OC		inconclusive: 22.4 µM [inhibitor, single point]
